Among the data in PubChem BioAssay AID220 (DTP/NCI, 2004) are T/C and survivor count values, retold here.

The list does not hold the whole screen: its compounds were picked by chemical class. Not every dose and run of a compound is shown. T/C is the treated group as % of the vehicle group. Schedules are NCI's codes, read here as Q, the interval in days (D) or hours (H), X, the number of doses. Some entries were tested several times; the results are listed from low to high. Some T/C values are marked as having no survivor count here; that says nothing about deaths at the dose. Some T/C values carry the count of animals alive at the toxicity check; without a count or a note in brackets, all were alive then. Some values lie below zero, which means that the treated tumours became smaller. Some entries give survivors of the animals treated and no T/C: the source files T/C as zero there, which appears to mark a toxic dose or a test without result, not a measured value. Survivors were counted at the toxicity check; its day is shown where the source gives one, and later deaths do not show.

This assay deals with CD8F1 mice, subcutaneous mammary adenocarcinoma, T/C%. The experiment in a line: NCI In Vivo Anticancer Drug Screen. Data for tumor model Mammary Adenocarcinoma CD8F1 (subcutaneous) in CD8F1. As to conditions: higher T/C = larger tumour. As for the experimental part:
The antitumor activity of compounds was measured in mice bearing transplantable tumors. Survival or tumor size were measured and the results are expressed as the measurement made in the treated group (T) divided by the measurement made in the vehicle treated control group (C). The tumor model used in this assay is Mammary Adenocarcinoma CD8F1 (subcutaneous) in CD8F1

Setting [1] is: T/C endpoint: median tumor weight (est.), dose: 12.5 mg/kg/injection, schedule: Q07DX005 (ip), vehicle: Klucel (hydroxypropylcellulose) (HPC), evaluated on day 30.
The mark [2] stands for this setting: T/C endpoint: median tumor weight (est.), dose: 12.5 mg/kg/injection, schedule: Q07DX005 (ip), vehicle: Klucel (hydroxypropylcellulose) (HPC), evaluation day not shown.
[3] abbreviates: T/C endpoint: median tumor weight (est.), dose: 25.0 mg/kg/injection, schedule: Q07DX005 (ip), vehicle: Klucel (hydroxypropylcellulose) (HPC), evaluated on day 30.
The mark [4] stands for this setting: T/C endpoint: median tumor weight (est.), dose: 25.0 mg/kg/injection, schedule: Q07DX005 (ip), vehicle: Klucel (hydroxypropylcellulose) (HPC), evaluation day not shown.
Setting [5] is: T/C endpoint: median tumor weight (est.), dose: 50.0 mg/kg/injection, schedule: Q07DX005 (ip), vehicle: Klucel (hydroxypropylcellulose) (HPC), evaluated on day 30.
The mark [6] stands for this setting: T/C endpoint: median tumor weight (est.), dose: 50.0 mg/kg/injection, schedule: Q07DX005 (ip), vehicle: Klucel (hydroxypropylcellulose) (HPC), evaluation day not shown.
Setting [7] is: T/C endpoint: median tumor weight (est.), dose: 100.0 mg/kg/injection, schedule: Q07DX005 (ip), vehicle: Klucel (hydroxypropylcellulose) (HPC).

As to `O=C(O)c1ccc(CN(CCCl)CCCl)cc1`, the T/C by setting is: (T/C endpoint: mean tumor weight, dose: 0.12 mg/kg/injection, schedule: Q07DX006 (ip), vehicle: water, evaluation day not shown) 29 % of control [survivor count not shown]; (T/C endpoint: mean tumor weight, dose: 0.25 mg/kg/injection, schedule: Q07DX006 (ip), vehicle: water, evaluation day not shown) 55 % of control [survivor count not shown]; (T/C endpoint: mean tumor weight, dose: 0.5 mg/kg/injection, schedule: Q07DX006 (ip), vehicle: water, evaluation day not shown) 25 % of control [survivor count not shown]; (T/C endpoint: mean tumor weight, dose: 1.0 mg/kg/injection, schedule: Q07DX006 (ip), vehicle: water, evaluation day not shown) 33 % of control [survivor count not shown]; (T/C endpoint: median tumor weight (est.), dose: 0.12 mg/kg/injection, schedule: Q07DX005 (ip), vehicle: water, evaluation day not shown) 54 % of control [survivor count not shown]; (T/C endpoint: median tumor weight (est.), dose: 0.25 mg/kg/injection, schedule: Q07DX005 (ip), vehicle: water, evaluation day not shown) 58 % of control [survivor count not shown]. In addition, the T/C is 123 % of control [survivor count not shown] (T/C endpoint: median tumor weight (est.), dose: 0.5 mg/kg/injection, schedule: Q07DX005 (ip), vehicle: water, evaluation day not shown) and 106 % of control [survivor count not shown] (T/C endpoint: median tumor weight (est.), dose: 1.0 mg/kg/injection, schedule: Q07DX005 (ip), vehicle: water, evaluation day not shown).

With `COc1ccc(N(CCCl)CCCl)cc1`, the T/C reads like this: under setting [1], 134 % of control; under setting [2], 66 % of control [survivor count not shown]; under setting [3], 50 % of control; under setting [4], 66 % of control [survivor count not shown]; under setting [5], 11 % of control; under setting [6], 38 % of control [survivor count not shown]. Moreover, the survivor count under setting [7] was 0 of 10 on day 30.

As for `ClCCN(CCCl)c1ccccc1`, the T/C was 75 % of control (T/C endpoint: median tumor weight (est.), dose: 0.7 mg/kg/injection, schedule: Q07DX005 (ip), vehicle: Klucel (hydroxypropylcellulose) (HPC), evaluated on day 30); 150 % of control (T/C endpoint: median tumor weight (est.), dose: 1.5 mg/kg/injection, schedule: Q07DX005 (ip), vehicle: Klucel (hydroxypropylcellulose) (HPC), evaluated on day 30); 56 % of control (T/C endpoint: median tumor weight (est.), dose: 3.0 mg/kg/injection, schedule: Q07DX005 (ip), vehicle: Klucel (hydroxypropylcellulose) (HPC), evaluated on day 30); 58 % of control [survivor count not shown] (T/C endpoint: median tumor weight (est.), dose: 3.12 mg/kg/injection, schedule: Q07DX005 (ip), vehicle: saline with Tween-80, evaluation day not shown); 82 % of control (T/C endpoint: median tumor weight (est.), dose: 6.0 mg/kg/injection, schedule: Q07DX005 (ip), vehicle: Klucel (hydroxypropylcellulose) (HPC), evaluated on day 30); 79 and 100 % of control (T/C endpoint: median tumor weight (est.), dose: 6.25 mg/kg/injection, schedule: Q07DX005 (ip), vehicle: Klucel (hydroxypropylcellulose) (HPC), evaluated on day 30). Moreover, the T/C was 58 [survivor count not shown] and 59 % of control [survivor count not shown] (T/C endpoint: median tumor weight (est.), dose: 6.25 mg/kg/injection, schedule: Q07DX005 (ip), vehicle: saline with Tween-80, evaluation day not shown); 10 % of control [survivor count not shown] (T/C endpoint: median tumor weight (est.), dose: 12.5 mg/kg/injection, schedule: Q01DX005 (ip), vehicle: saline with Tween-80, evaluation day not shown); 13 and 54 % of control under setting [1]; 48 % of control [survivor count not shown] under setting [2]; 98 % of control [survivor count not shown] (T/C endpoint: median tumor weight (est.), dose: 12.5 mg/kg/injection, schedule: Q07DX005 (ip), vehicle: saline with Tween-80, evaluation day not shown); 31 and 51 % of control (T/C endpoint: median tumor weight (est.), dose: 15.0 mg/kg/injection, schedule: Q07DX005 (ip), vehicle: Klucel (hydroxypropylcellulose) (HPC), evaluated on day 30). The T/C reads like this: under setting [3], 2 and 18 % of control; under setting [4], 19 % of control [survivor count not shown]; (T/C endpoint: median tumor weight (est.), dose: 25.0 mg/kg/injection, schedule: Q07DX005 (ip), vehicle: saline with Tween-80, evaluation day not shown) 22 % of control [survivor count not shown]; (T/C endpoint: median tumor weight (est.), dose: 30.0 mg/kg/injection, schedule: Q07DX005 (ip), vehicle: Klucel (hydroxypropylcellulose) (HPC), evaluated on day 30) 6 and 14 % of control; (T/C endpoint: median tumor weight (est.), dose: 50.0 mg/kg/injection, schedule: Q01DX005 (ip), vehicle: saline with Tween-80, evaluation day not shown) 1 % of control [survivor count not shown]; under setting [5], 9 % of control. Moreover, the T/C runs as follows: under setting [6], 4 % of control [survivor count not shown]; (T/C endpoint: median tumor weight (est.), dose: 60.0 mg/kg/injection, schedule: Q07DX005 (ip), vehicle: Klucel (hydroxypropylcellulose) (HPC), evaluated on day 30) 6 % of control [7 of 10 alive on day 30]; (T/C endpoint: median tumor weight (est.), dose: 100.0 mg/kg/injection, schedule: Q01DX005 (ip), vehicle: saline with Tween-80, evaluation day not shown) 1 % of control [survivor count not shown]; (T/C endpoint: median tumor weight (est.), dose: 100.0 mg/kg/injection, schedule: Q07DX005 (ip), vehicle: Klucel (hydroxypropylcellulose) (HPC), evaluated on day 30) 4 % of control [8 of 10 alive on day 30]; (T/C endpoint: median tumor weight change, dose: 15.62 mg/kg/injection, schedule: Q01DX001 (ip), vehicle: Klucel (hydroxypropylcellulose) (HPC), evaluated on day 30) 30 % of control; (T/C endpoint: median tumor weight change, dose: 31.0 mg/kg/injection, schedule: Q01DX001 (ip), vehicle: Klucel (hydroxypropylcellulose) (HPC), evaluated on day 28) 60 % of control. Also, the T/C by setting is: (T/C endpoint: median tumor weight change, dose: 31.25 mg/kg/injection, schedule: Q01DX001 (ip), vehicle: Klucel (hydroxypropylcellulose) (HPC), evaluated on day 30) 17 % of control [9 of 10 alive on day 30]; (T/C endpoint: median tumor weight change, dose: 62.0 mg/kg/injection, schedule: Q01DX001 (ip), vehicle: Klucel (hydroxypropylcellulose) (HPC), evaluated on day 28) 12 % of control; (T/C endpoint: median tumor weight change, dose: 62.5 mg/kg/injection, schedule: Q01DX001 (ip), vehicle: Klucel (hydroxypropylcellulose) (HPC), evaluated on day 30) -53 % of control [9 of 10 alive on day 30]; (T/C endpoint: median tumor weight change, dose: 125.0 mg/kg/injection, schedule: Q01DX001 (ip), vehicle: Klucel (hydroxypropylcellulose) (HPC), evaluated on day 28) -52 % of control [7 of 9 alive on day 28]. For the same compound, the survivor count (T/C endpoint: median tumor weight (est.), dose: 60.0 mg/kg/injection, schedule: Q07DX005 (ip), vehicle: Klucel (hydroxypropylcellulose) (HPC)) is 3 of 10 on day 30; the survivor count under setting [7] is 0 of 10 on day 30; the survivor count (T/C endpoint: median tumor weight (est.), dose: 120.0 mg/kg/injection, schedule: Q07DX005 (ip), vehicle: Klucel (hydroxypropylcellulose) (HPC)) was 0 of 10 on day 30; the survivor count (T/C endpoint: median tumor weight (est.), dose: 200.0 mg/kg/injection, schedule: Q07DX005 (ip), vehicle: Klucel (hydroxypropylcellulose) (HPC)) is 0 of 10 on day 30; the survivor count (T/C endpoint: median tumor weight change, dose: 125.0 mg/kg/injection, schedule: Q01DX001 (ip), vehicle: Klucel (hydroxypropylcellulose) (HPC)) is recorded as 5 of 10 on day 30; the survivor count (T/C endpoint: median tumor weight change, dose: 250.0 mg/kg/injection, schedule: Q01DX001 (ip), vehicle: Klucel (hydroxypropylcellulose) (HPC)) was 0 of 10 on day 30 and 0 of 9 on day 28. The survivor count (T/C endpoint: median tumor weight change, dose: 500.0 mg/kg/injection, schedule: Q01DX001 (ip), vehicle: Klucel (hydroxypropylcellulose) (HPC)) was 0 of 10 on day 30 and 1 of 9 on day 28.
